Test results as given in article PMC4650536.
These are yes or no findings as the source states them, for the method shown. In cells and extracts the contact can be indirect. Some binding calls cover weakened binding; strength is not graded here. For part of these data: Sequences can lack the tags named with a protein.

Sequences of proteins named here, by UniProt entry; tags and fusion partners are left off.
UniProt P45973: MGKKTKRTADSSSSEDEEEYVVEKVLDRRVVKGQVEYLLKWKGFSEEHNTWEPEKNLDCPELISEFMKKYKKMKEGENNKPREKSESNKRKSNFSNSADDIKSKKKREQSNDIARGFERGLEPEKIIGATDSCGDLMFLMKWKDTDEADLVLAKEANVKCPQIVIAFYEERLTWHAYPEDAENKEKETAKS
UniProt Q9BWN1: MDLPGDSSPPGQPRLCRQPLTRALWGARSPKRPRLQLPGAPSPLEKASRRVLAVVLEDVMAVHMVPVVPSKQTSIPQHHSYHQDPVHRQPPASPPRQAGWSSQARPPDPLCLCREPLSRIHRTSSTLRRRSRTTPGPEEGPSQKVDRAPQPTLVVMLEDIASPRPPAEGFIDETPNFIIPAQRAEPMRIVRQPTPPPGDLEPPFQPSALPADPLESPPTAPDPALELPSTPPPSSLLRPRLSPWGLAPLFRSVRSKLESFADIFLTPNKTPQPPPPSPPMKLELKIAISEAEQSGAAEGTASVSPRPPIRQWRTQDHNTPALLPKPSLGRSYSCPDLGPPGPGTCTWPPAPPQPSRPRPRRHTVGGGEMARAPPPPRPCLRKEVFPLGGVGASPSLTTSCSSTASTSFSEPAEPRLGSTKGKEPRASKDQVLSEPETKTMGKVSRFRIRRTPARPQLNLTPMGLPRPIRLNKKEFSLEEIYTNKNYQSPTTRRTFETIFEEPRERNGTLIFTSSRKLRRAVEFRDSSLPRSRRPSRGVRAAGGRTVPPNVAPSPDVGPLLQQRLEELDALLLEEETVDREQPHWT

Assays:
Experiment in all cases: co-IP; HEK293T cells 48 h after transfection, lysed in RIPA buffer (25 mM Tris-HCl pH 7.6, 150 mM NaCl, 1% NP-40, 1% sodium deoxycholate, 0.1% SDS); precipitated with Anti-FLAG M2 magnetic beads; immunoblot
Flag-tagged HP1α = Flag-tagged HP1α (UniProt P45973)
[1] = target: Flag-tagged full-length PRR14 (proline rich 14) (human) (UniProt Q9BWN1)
Flag-MDM4 = target: T1, Flag-MDM4 (UniProt O15151)
T1 sequence: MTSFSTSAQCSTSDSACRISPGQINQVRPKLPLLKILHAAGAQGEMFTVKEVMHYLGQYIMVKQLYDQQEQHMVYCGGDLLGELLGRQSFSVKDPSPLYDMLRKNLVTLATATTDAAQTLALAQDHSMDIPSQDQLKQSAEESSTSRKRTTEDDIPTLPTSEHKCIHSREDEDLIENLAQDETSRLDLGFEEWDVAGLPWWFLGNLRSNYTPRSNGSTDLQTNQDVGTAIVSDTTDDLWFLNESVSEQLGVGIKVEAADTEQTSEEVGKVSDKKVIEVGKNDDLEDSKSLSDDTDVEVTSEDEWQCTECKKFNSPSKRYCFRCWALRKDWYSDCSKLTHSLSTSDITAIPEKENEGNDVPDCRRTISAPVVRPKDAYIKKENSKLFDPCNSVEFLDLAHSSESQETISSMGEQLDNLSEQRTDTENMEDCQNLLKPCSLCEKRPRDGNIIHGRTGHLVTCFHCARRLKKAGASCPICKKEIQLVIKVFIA

binding (Flag-tagged HP1α)	binding [1]	binding (Flag-MDM4)	Substance
binds			GFP-PRR14 (from UniProt Q9BWN1 1-585)
	binds	no binding	heterochromatin protein 1 alpha (HP1α) (from UniProt P45973 1-191)
